Results reported in the supplement of paper PMC10849652.
This is one part of the list.

Amino acid sequences for entries named in this document (tags omitted). A change or cut given only in a name is not applied to a line headed by its entry.
UniProt P07195, whole entry, looked up: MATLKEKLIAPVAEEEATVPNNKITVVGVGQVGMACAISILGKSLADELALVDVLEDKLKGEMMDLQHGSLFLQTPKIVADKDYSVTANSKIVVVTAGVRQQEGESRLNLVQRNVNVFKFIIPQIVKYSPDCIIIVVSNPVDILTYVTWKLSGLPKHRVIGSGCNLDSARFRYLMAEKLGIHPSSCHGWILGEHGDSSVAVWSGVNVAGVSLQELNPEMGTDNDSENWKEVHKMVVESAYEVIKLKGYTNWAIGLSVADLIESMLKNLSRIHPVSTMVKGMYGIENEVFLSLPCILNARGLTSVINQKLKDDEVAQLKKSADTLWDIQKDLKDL
UniProt Q9BU23: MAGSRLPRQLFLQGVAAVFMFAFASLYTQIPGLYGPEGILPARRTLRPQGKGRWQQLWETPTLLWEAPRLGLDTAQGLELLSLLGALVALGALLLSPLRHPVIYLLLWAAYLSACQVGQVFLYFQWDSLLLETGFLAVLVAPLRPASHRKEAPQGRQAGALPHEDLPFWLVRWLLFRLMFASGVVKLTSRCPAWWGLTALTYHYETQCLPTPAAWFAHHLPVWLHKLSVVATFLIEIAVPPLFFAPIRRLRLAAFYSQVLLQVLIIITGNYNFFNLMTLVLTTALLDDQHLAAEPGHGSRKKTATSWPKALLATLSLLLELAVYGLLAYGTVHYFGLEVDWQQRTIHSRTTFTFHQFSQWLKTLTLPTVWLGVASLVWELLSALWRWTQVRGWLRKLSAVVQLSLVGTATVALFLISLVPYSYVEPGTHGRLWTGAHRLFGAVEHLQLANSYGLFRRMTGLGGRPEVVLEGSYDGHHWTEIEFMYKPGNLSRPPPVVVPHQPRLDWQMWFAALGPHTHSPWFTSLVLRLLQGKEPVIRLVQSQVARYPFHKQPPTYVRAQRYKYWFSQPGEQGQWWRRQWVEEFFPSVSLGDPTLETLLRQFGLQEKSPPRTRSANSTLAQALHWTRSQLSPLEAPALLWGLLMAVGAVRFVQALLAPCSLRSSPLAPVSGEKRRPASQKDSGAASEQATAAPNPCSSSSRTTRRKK
UniProt Q7L1W4: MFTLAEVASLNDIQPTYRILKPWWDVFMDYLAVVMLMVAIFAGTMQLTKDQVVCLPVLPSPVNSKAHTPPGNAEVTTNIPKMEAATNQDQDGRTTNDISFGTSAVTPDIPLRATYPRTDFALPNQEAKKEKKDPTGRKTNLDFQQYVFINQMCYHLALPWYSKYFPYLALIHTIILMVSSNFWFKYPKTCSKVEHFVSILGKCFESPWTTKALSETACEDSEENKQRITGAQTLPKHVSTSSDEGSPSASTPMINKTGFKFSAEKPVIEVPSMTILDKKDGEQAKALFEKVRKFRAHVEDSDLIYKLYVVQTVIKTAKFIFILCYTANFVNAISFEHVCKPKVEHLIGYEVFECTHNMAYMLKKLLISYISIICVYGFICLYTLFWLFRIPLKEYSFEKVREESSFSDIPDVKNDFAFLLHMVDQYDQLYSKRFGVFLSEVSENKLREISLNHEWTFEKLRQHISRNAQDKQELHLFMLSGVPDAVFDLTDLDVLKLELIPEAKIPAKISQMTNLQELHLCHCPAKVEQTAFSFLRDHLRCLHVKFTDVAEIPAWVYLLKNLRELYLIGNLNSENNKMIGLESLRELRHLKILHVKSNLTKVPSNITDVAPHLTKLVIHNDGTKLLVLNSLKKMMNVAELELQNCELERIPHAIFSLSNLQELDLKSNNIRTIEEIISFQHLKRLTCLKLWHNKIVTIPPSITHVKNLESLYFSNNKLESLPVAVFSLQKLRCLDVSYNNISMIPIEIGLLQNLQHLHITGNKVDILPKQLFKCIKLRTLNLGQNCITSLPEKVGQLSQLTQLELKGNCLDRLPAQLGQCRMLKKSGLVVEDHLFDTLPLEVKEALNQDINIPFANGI
UniProt P80188: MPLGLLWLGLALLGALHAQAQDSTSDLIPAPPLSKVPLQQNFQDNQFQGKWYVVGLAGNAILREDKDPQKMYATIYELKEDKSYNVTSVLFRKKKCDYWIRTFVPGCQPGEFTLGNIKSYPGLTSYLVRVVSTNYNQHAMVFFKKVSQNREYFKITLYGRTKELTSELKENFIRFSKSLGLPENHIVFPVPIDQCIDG
UniProt Q9UK45: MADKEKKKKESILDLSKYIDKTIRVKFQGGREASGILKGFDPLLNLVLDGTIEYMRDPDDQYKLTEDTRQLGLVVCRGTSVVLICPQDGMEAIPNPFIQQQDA
UniProt P36776: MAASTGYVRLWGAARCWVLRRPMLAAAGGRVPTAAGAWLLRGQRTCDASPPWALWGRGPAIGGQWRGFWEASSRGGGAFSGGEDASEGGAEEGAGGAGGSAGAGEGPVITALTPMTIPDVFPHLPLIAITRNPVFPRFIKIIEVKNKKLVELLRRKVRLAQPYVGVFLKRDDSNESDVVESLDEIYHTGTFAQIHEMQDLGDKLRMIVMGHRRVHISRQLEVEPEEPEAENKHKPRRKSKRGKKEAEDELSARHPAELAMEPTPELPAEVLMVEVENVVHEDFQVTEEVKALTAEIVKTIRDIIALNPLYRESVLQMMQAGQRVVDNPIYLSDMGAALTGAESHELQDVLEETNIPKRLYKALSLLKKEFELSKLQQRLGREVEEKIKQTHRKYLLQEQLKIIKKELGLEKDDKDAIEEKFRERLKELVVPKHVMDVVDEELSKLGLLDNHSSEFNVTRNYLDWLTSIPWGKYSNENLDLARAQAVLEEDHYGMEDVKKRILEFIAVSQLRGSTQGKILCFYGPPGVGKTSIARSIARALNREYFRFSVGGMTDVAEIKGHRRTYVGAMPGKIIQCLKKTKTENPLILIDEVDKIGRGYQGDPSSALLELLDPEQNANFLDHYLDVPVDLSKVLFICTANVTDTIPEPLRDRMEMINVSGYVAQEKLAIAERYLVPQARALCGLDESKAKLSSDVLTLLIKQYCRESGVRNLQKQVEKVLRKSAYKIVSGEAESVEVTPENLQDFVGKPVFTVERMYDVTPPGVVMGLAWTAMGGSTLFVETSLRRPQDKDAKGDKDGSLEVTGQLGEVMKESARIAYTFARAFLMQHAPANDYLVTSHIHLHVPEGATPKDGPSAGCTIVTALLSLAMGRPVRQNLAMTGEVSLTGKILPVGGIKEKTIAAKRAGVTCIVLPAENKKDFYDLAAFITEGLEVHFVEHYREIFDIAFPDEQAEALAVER
UniProt Q5SW96: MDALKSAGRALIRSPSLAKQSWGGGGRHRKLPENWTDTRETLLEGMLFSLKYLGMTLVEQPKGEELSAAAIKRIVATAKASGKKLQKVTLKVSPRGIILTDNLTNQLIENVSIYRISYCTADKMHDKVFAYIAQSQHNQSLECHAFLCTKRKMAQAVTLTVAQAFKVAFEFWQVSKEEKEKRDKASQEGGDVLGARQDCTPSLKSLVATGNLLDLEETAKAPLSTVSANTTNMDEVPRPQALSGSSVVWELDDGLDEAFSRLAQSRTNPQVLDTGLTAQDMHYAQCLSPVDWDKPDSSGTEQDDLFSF
UniProt Q6PJG9: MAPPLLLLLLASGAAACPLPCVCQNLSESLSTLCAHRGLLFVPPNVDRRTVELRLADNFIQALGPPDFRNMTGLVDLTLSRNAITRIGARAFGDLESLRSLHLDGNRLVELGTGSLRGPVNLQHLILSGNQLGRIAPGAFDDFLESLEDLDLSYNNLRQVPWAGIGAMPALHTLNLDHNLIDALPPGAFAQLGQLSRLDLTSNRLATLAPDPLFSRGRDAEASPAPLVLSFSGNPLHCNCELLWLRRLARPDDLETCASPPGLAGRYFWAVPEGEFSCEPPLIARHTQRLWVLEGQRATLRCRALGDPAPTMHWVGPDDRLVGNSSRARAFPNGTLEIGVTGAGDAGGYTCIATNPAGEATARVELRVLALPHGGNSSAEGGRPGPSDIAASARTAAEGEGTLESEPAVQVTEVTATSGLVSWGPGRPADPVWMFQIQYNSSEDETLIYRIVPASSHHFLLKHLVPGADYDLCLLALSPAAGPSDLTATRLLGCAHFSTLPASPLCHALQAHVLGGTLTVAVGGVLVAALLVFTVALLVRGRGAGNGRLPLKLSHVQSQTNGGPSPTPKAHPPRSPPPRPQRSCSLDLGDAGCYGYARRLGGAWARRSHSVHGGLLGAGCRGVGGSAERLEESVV
UniProt Q6P1M3: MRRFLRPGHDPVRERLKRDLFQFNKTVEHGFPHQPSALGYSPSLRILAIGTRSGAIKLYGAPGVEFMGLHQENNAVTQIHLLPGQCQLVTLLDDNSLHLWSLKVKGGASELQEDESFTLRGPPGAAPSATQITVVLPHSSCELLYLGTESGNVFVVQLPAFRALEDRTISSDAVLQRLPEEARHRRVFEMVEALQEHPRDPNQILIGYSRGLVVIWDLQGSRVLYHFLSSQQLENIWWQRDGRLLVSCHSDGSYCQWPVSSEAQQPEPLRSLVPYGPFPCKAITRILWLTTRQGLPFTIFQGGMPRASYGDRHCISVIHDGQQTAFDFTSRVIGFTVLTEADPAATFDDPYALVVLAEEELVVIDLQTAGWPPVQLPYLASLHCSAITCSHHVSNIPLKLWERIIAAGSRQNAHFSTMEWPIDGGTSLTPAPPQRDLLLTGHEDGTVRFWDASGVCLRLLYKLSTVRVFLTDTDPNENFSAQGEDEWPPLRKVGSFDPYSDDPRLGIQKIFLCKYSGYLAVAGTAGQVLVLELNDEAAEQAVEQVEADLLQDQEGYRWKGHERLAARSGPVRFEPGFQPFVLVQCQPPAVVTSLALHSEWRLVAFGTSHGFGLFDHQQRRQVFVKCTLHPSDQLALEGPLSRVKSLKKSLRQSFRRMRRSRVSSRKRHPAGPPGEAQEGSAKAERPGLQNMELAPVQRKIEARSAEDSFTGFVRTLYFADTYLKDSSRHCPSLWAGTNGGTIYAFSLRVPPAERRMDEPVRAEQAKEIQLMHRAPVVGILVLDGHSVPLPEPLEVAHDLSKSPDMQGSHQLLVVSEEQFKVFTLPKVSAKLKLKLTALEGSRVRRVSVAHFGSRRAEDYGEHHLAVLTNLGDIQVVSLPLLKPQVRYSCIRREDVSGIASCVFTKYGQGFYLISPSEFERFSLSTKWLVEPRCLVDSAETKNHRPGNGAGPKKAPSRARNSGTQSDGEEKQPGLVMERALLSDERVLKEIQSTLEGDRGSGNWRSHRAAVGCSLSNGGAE
UniProt P83369: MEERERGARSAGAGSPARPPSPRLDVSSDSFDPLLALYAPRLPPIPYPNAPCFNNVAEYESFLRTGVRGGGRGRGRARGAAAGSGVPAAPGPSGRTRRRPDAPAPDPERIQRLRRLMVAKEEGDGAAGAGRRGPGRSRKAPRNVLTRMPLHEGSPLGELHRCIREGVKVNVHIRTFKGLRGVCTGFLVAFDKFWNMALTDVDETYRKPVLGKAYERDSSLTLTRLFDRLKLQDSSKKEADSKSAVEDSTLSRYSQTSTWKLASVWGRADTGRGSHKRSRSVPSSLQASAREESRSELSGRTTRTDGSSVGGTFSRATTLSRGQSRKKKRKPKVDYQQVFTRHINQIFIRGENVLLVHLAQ
UniProt Q8N448: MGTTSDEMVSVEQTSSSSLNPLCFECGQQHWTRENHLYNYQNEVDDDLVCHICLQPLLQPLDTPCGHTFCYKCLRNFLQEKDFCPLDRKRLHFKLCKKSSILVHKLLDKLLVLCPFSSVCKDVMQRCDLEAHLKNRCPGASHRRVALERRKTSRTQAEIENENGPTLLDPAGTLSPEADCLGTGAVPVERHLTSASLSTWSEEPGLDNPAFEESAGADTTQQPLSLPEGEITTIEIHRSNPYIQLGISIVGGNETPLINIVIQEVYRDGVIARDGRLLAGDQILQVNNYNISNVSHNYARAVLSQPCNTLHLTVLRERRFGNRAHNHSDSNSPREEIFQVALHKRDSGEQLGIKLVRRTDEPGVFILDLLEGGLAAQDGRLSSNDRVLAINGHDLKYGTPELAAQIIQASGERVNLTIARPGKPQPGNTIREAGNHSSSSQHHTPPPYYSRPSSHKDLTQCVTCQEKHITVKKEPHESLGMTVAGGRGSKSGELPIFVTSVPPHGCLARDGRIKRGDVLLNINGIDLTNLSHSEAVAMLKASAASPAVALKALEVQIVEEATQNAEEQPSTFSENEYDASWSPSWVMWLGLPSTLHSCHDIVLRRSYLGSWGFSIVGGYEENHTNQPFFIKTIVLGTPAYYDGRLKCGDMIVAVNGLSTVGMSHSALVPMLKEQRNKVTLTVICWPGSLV
UniProt Q96AG4: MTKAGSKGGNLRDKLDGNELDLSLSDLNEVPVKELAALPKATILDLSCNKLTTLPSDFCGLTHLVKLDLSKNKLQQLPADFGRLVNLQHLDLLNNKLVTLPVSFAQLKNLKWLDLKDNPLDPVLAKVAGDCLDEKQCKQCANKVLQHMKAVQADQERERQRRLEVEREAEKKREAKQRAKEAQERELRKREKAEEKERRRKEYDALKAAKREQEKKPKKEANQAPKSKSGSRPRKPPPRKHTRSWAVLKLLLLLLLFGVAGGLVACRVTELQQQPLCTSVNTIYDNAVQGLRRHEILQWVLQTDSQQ

Legend:
Experiment in all cases: log2 fold change, soluble protein after heating vs DMSO (PISA); higher = thermal stabilisation; K562 lysate, 10 uM; active = over 0.2 and 3.5 SD of the protein, either way, in both replicates (recomputed)
erlotinib = compound: C#Cc1cccc(Nc2ncnc3cc(OCCOC)c(OCCOC)cc23)c1 [erlotinib]
In short: (§1)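 K562 pellets were dounce-homogenised in PBS pH 7.4 with 1 mM MgCl2, and the crude extract at 1 mg/mL protein was treated with 10 μM compound for 30 min. Aliquots were heated for 3 min across 48°C-58°C, pooled, and brought to 0.5% NP-40 at 4°C; soluble protein was the supernatant after 21,000xg for 90 min. Soluble protein was quantified by TMTpro 16plex LC-MS/MS with channel sums equalised, and reported as log2 fold change in thermal stability against DMSO controls, with values from duplicates.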

[1] = compound: C/C(=N\NC(=O)C1=CC(=CC=C1)S(=O)(=O)N2CCOCC2)/C3=C(C=CC(=C3)Cl)O
In short: as §1

[2] = compound: C1=CC(=CC=C1C2=NC3=C(N2)C=C(C=C3)C(=O)N)OC4=CC=C(C=C4)Cl
In short: as §1

[3] = compound: C1=CC2=C(C=CC(=C2)/C=C\3/C(=O)NC(=NCC4=CC=CS4)S3)N=C1
In short: as §1

[4] = compound: C1=CC2=NC=CN=C2C=C1/C=C/3\C(=O)NC(=O)S3
In short: as §1

[5] = compound: C1=CC=C(C=C1)C2=NC(=C(N2)C3=CC=NC=C3)C4=CC(=C(C=C4)Cl)O
In short: as §1

[6] = compound: C1=CC=C2C(=C1)C3=NNC4=CC=CC(=C43)C2=O
In short: as §1

[7] = compound: C1CCN(C1)C(=O)NC2=CC=CC(=C2)NC3=NC=C(C(=N3)NCCC4=CN=CN4)Br
In short: as §1

[8] = compound: C1CN(CCC1(CC2=CC=C(C=C2)Cl)N)C3=NC=NC4=C3C=CN4
In short: as §1

IRAK-1-4 Inhibitor I = compound: C1COCCN1CCN2C3=CC=CC=C3N=C2NC(=O)C4=CC(=CC=C4)[N+](=O)[O-] [IRAK-1-4 Inhibitor I]
In short: as §1

Measured: log2 fold change

LDHB (UniProt P07195)
inactive: erlotinib -0.004 | [1] 0.006 | [2] 0.008 | [3] 0.001 | [4] 0 | [5] -0.007 | [6] 0.02 | [7] 0.007 | [8] -0.016 | IRAK-1-4 Inhibitor I 0.009

LMF2 (UniProt Q9BU23)
inactive: erlotinib -0.019 | [1] -0.098 | [2] 0.106 | [3] -0.043 | [4] 0.014 | [6] -0.132 | [7] 0.073 | [8] 0.064

LRRC8D (UniProt Q7L1W4)
inactive: erlotinib 0.003 | [1] 0.066 | [2] -0.03 | [3] -0.039 | [4] 0.035 | [5] -0.047 | [6] -0.04 | [7] -0.022 | [8] 0.074 | IRAK-1-4 Inhibitor I 0.037

LRRC8C (UniProt E9PHY6)
inactive: erlotinib -0.099 | [1] -0.025 | [2] -0.133 | [3] 0.032 | [6] -0.376

LSM4 (UniProt Q9Y4Z0)
inactive: erlotinib -0.009 | [1] -0.002 | [2] 0.048 | [3] 0.003 | [4] -0.018 | [5] 0.007 | [6] -0.002 | [7] -0.024 | [8] 0.022 | IRAK-1-4 Inhibitor I 0.01

LCORL (UniProt Q8N3X6)
inactive: erlotinib 0.096 | [1] -0.258 | [2] -0.059 | [3] 0.121 | [5] 0.011 | [6] 0.134 | IRAK-1-4 Inhibitor I 0.017

LRRC42 (UniProt Q9Y546)
inactive: erlotinib -0.062 | [1] 0.04 | [2] -0.155 | [3] -0.046 | [5] 0.067 | [6] -0.03 | [7] 0.094 | [8] -0.013 | IRAK-1-4 Inhibitor I -0.046

LCN2 (UniProt P80188)
inactive: erlotinib -0.048 | [1] 1.2 | [2] -0.262 | [3] -0.001 | [6] -0.501

LSM7 (UniProt Q9UK45)
inactive: erlotinib -0.004 | [1] 0.029 | [2] -0.003 | [3] -0.019 | [4] -0.023 | [5] -0.043 | [6] 0.008 | [7] 0.009 | [8] 0 | IRAK-1-4 Inhibitor I 0.026

LONP1 (UniProt P36776)
inactive: erlotinib -0.001 | [1] -0.04 | [2] 0.024 | [3] 0.005 | [4] -0.016 | [5] 0.002 | [6] 0.002 | [7] 0.027 | [8] 0.014 | IRAK-1-4 Inhibitor I -0.019

LGALS3BP (UniProt Q08380)
inactive: erlotinib -0.154 | [1] 0.293 | [2] 0.064 | [3] 0.331 | [6] -0.203 | [7] 0.018 | [8] -0.171

LDLRAP1 (UniProt Q5SW96)
inactive: erlotinib 0.081 | [1] -0.142 | [2] -0.035 | [3] 0.125 | [4] -0.024 | [5] -0.028 | [6] -0.001 | [7] -0.025 | [8] -0.007 | IRAK-1-4 Inhibitor I 0.032

LRFN4 (UniProt Q6PJG9)
inactive: erlotinib 0.017 | [1] 0.015 | [2] 0.003 | [3] -0.075 | [6] 0.045 | [7] 0.005 | [8] -0.034

LLGL2 (UniProt Q6P1M3)
inactive: erlotinib -0.4 | [1] 0.236 | [2] -0.094 | [3] 0.284 | [6] 0.005 | [7] 0.058 | [8] -0.398

2 successive entries out of the list so far, for reference:
LGALS3BP (UniProt Q08380)
inactive: erlotinib -0.154 | [1] 0.293 | [2] 0.064 | [3] 0.331 | [6] -0.203 | [7] 0.018 | [8] -0.171

LDLRAP1 (UniProt Q5SW96)
inactive: erlotinib 0.081 | [1] -0.142 | [2] -0.035 | [3] 0.125 | [4] -0.024 | [5] -0.028 | [6] -0.001 | [7] -0.025 | [8] -0.007 | IRAK-1-4 Inhibitor I 0.032

(cont.)

LRRFIP1 (UniProt Q32MZ4)
inactive: erlotinib 0.002 | [1] -0.017 | [2] 0.03 | [3] 0.016 | [4] 0.004 | [5] 0.011 | [6] -0.015 | [7] -0.034 | [8] -0.004 | IRAK-1-4 Inhibitor I 0.003

LSM11 (UniProt P83369)
inactive: erlotinib 0.104 | [1] 0.262 | [2] 0.065 | [3] -0.056 | [6] -0.044 | [7] -0.029 | [8] -0.055

LNX2 (UniProt Q8N448)
inactive: erlotinib 0.068 | [1] -0.227 | [2] -0.216 | [3] -0.068 | [4] 0.027 | [6] 0 | [7] -0.129 | [8] 0.03

LRRC59 (UniProt Q96AG4)
inactive: erlotinib -0.025 | [1] 0 | [2] -0.006 | [3] -0.033 | [4] -0.011 | [5] 0.004 | [6] 0.016 | [7] 0.001 | [8] 0.001 | IRAK-1-4 Inhibitor I 0.013
